Test results as given in patent US20060008800A1, “Unc-13 in the modulation of neurotransmission and secretion events” (priority 2002, published 2006).
For at least one compound, name, drawing or mass did not settle the structure.

Tests used:
[1] = tested on: Munc13-1 deficient hippocampal neurons; assay: EPSC augmentation following high frequency action potential trains in Munc13-1 deficient, Munc13-2 dependent neurons; type: cell-based, mouse; conditions: combination of forskolin 1 μM with okadaic acid 1 μM
hippocampal neurons = assay: α-latrotoxin induced mEPSC/mIPSC activity; type: cell-based, mouse; conditions: Munc13-2 deficient and Munc13-1/2 double deficient neurons
Protocol: Microisland culture preparation was performed according to Bekkers and Stevens (1991). The extracellular medium contained (mM): NaCl, 167; KCl, 2.4; HEPES, 10; glucose, 10; CaCl2, 4; MgCl2, 4 (340 mOsm, pH 7.3). Solutions were applied and recordings were performed as described in Rosenmund (1995). To examine synaptically activated currents, experiments were performed using recurrent synapses (autapses) or only single autaptic neuroeses on microisland cultures at room temperature (=24° C.). Pipette solutions included (mM): KCl, 120, or K-Gluconate, 125; HEPES, 10; EGTA, 1; MgCl2, 4.6; Na4ATP, 4; Creatinephosphate, 15; creatinephosphokinase 50 U/ml (320 mOsm, pH 7.3). Wild type and Munc13-1 deficient glutamatergic hippocampal neurons were used to study the characteristics of Munc13-1 and Munc13-1 independent synapses. For these purposes, individual neurons grown on microisland beds of glial cells (Bekkers, 1991) were employed. In this autaptic culture system, where isolated nerve cells make multiple synaptic contacts, so called autapses, with their own dendritic trees, spontaneous transmitter release, release of the readily releasable vesicle pool induced by hypertonic solutions, and action potential evoked release arise from the same synapse population and can be measured readily with patch clamp techniques. Autaptic responses were obtained after brief (1-2 ms) somatic depolarization. […]

## C=C[C@@]1(C)CC(=O)[C@]2(O)[C@@]3(C)[C@@H](O)CCC(C)(C)[C@@H]3[C@H](O)[C@H](OC(C)=O)[C@@]2(C)O1 [forskoline]
[1]
  effect on augmentation: unable to block augmentation

## CN1CCc2cc3c(cc2[C@H]1[C@@H]1OC(=O)c2c1ccc1c2OCO1)OCO3 [bicuculline]
Hippocampal neurons
  effect on α-latrotoxin induced mIPSC signals: blocked
